The list shows a part of the results. These are further read-outs of the screen, such as a control signal, another cell line or another target. No call is given for them. The list favours compounds with an active or inconclusive main result. The note in brackets gives the kind of curve behind each potency; many fits are weak.

The nature of this assay: qHTS Assay for Lipid Storage Modulators in Drosophila S3 Cells.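 On cell number change: cells counted by Cell Tracker Red CMTPX staining in the red channel.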 The following applies: BODIPY lipid droplet fluorescence, 18-24 h; for cell number change: measured here: cell count max response, cells fed with added oleic acid; for AC50: measured here: lipid fluorescence (Fed channel) AC50, cells fed with added oleic acid. From the text:
NIH Molecular Libraries Probe Production Centers Network [MLPCN] NIH Chemical Genomics Center [NCGC] MLPCN Grant: 1 R03 MH085686-01 Assay Submitter (PI): Beller, Mathias; Max-Planck-Institut fur Biophysikalische Chemie NCGC Assay Overview: Storing lipids as a reservoir for energy or the anabolism of elementary metabolites is a common feature of probably all cells and is conserved from bacteria to humans. The universal cellular lipid storage organelle is the so-called lipid storage droplet (LD). Although ubiquitous, LDs share a simple structure composed of a hydrophobic core that harbors the storage lipids, which is shielded by a droplet-specific phospholipid monolayer to which proteins are attached. The current model of LD biogenesis involves an incorporation of the lipid core into the membrane leaflets of the endoplasmic reticulum (ER) followed by a subsequent budding-like maturation of a LD, which ultimately pinches off. Once released, LD volume can increase by localized lipogenesis or fusion of existing droplet. Storage lipids are re-mobilized enzymatically by lipase activity. Lipase regulation in the adipocyte is heavily studied and involves multiple components including catecholamine signaling, the LD-associated proteins Perilipin and comparative gene identification (CGI-58) and at least two lipases named hormone sensitive lipase (HSL) and adipocyte triglyceride lipase (ATGL). LD regulation outside of the adipocyte is poorly understood and only few components are known. However, there is an urgent need to learn more about ectopic fat depots as mislocalized storage of lipids, for example in the liver or muscle, is an eminent health problem associated with insulin resistance or the metabolic syndrome. We developed a laser-scanning cytometer assay to enable 1,536-well screening and combined the results of the small molecules screen with an RNAi database based on lipid storage.
Triacsin C (Sigma-Aldrich T-4540), an inhibitor of long-chain fatty acyl CoA synthetase that blocks synthesis of triglycerides, was used as a positive control for lipid under-storage. A total of 23 nL of compound solution of different concentrations were transferred to the assay plates using a Kalypsys pin tool equipped with a 1,536-pin array containing 10-nL slotted pins (FP1S10, 0.457-mm diameter, 50.8 mm long; V&P Scientific). One microliter of oleic acid (400 uM) was added, and the plate was lidded with stainless steel rubber gasket lined lids containing pinholes. […] Fluorescence was detected by excitation of the fluorophores with a 488-nm laser on an Acumen Explorer (TTP Lab Tech). […] Cells were detected using channel 3 (575-640 nm) with 5-um width and 100-um depth filters. The ratio of the number of objects in PMT channel 2 over the number of objects in PMT channel 3 was also calculated. […]
On the technique in general: Quantitative high-throughput screening tests each substance at several concentrations.

By AC50 is commonly meant the concentration giving half of the maximal activity seen. The low end stands for greater potency, the high end for weaker potency. Turning to `CC(c1ccccc1)N1C(=O)c2ccc(C(=O)Nc3ccccc3C(=O)O)cc2C1=O` (centres undefined), the cell number change was -7.33% and the AC50 is 0.82 µM [rising, full curve, poor fit].

For `Cc1cccc(S(=O)(=O)Nc2nc3ccccc3nc2Nc2cccc(C(=O)O)c2)c1`, the cell number change is -8.4% and the AC50 is 6.51 µM [rising, single point].

Values taken from PubChem BioAssay AID2685 (National Center for Advancing Translational Sciences (NCATS), 2010).
